# Measurements reported in patent publication US20130303562A1, “CHEMICAL AND RNAI SUPPRESSORS OF NEUROTOXICITY IN HUNTINGTON'S DISEASE” (priority 2010, published 2013).
# Entries after “also recorded” stand apart in the source; their conditions may differ.
# Tested on: Htt-Q138 expressing primary neural cultures
# Experiment: In vitro validation of screen hits by confocal microscopy of primary cultures on glass coverslips
# Type: cell-based, Drosophila
# Settings: up to one week of continuous exposure
# Source text: FIG. 4. In vitro validation of small molecule screen hits. Confocal microscopy images of primary cultures plated on glass coverslips and treated with either DMSO (A,B) or test compounds (C,D). […] HttQ15 is soluble and fills most neurite processes. […] (E) Quantification of altered Htt138Q distribution following Camptothecin treatment.
# Microscopy: For high-content screening mature 7-day old cultures were imaged with an ImageXpress^MICRO robotic microscope (Molecular Devices, Sunnyvale, Calif.) using a 10× objective and FITC/Cy3 filter sets. Images were 1392×1040 pixels, or 897×670 micrometers. Laser-based autofocusing was used to locate plate bottoms, and then image-based focusing used to resolve fluorescently labeled neurons over a 48 μm range. The GFP and mRFP channels were imaged in the same focal plane, with exposure times of 850 and 400 ms respectively. Three sites were imaged per well for each treatment group, and the screen was done in duplicate. For confocal microscopy of primary cultures, neuroblasts were plated on poly-L-lysine coated chambered cover slips (LabTekII, 0.8 cm^2/well) at 18,300 cells/well in 50 μL volume. Small molecules were added to cultures 24 hours after plating, incubated for 7 days, and then imaged with a Leica TCS-SP2 confocal LSM microscope.
structure (smiles),measurement,value
CC[C@@]1(O)C(=O)OCc2c1cc1n(c2=O)Cc2cc3ccccc3nc2-1 [Camptothecin],Expression levels of Htt-Q138 / Htt-mRFP fluorescence,did not observe any decrease in Htt-mRFP fluorescence; also recorded: does not alter expression levels of Htt-Q138
